This is an account of results in ChEMBL document CHEMBL5335864 (ACS Med Chem Lett, 2024).

A word on the logD: it is lipophilicity at a set pH, counting ionised and neutral species. A higher logD goes with a more lipophilic compound.

This data set can be described thus: physchem. Particulars: octanol/water, pH 7.4.

Molecules are shown by their SMILES.

In the case of `FC(F)(F)c1nc(-c2ccc(CCN3CCC(Nc4nc5ncccc5[nH]4)CC3)cc2)no1`, the logD came to 6.71.

For `FC(F)(F)c1nc(-c2ccc(CCN3CCC(Nc4nc5cnccc5[nH]4)CC3)cc2)no1`, the logD came out at 8.59.
